# In the supplement of paper PMC8728848:
# The other results are listed elsewhere or left out.
# B1: CcfD (Bacteroides vulgatus), A6KYX8 (protein)
# chain: MKYKNYFKSIIYLALGAFTLGSCEDFLDRQEDEKLTFDKIWESRNTTQQYWLNAMSFLPNENGSLQGDTEPYLGASDECTIAYDRQYRWINFGTWNPSQVPYYKMDHYYKGIRECNIFLQNVYKCSDPLVTKDQLDEWYWQTRFARAYYYFLMMRDYGPVFLLGDDLLDFTASTEELYRPRNTWDQCVNYVVSEMTQCAESGVVLQQSDLPAAKWGLATVGTCHAVISRLLLYSARPLFNGNKLYSTVKNPDAPDFPELSGVKLFPELDNTKWQKAAEAAKKLIDNPCYELYRAGNDNPYEDYYGVTHETWNKELIWTDRYNGLFSWGVGTVPTGVAGTAYGAVGPTQALVDAYAMNTGWYPITGYEADGTPIVEPLSGYELASELEKSSWIYPSGGWSNKADFEIEAPNMYKDREPRFYVTVFFGGNQWLHGNSATSISFAKGGNGNKSHDYPKSGYLCNRFYDHKLNSSEGQWGNITFPVFRLGEIYLNFIEAVLECKKNGVALDPSYEALAMEKWADLRKRAGLDPITSIYGQVSTEELIQLCRKERQIELAFERHRYFDTRTWMIATQTDNGKMYGMNTSCPLDAGMKGTETPDGFWERTAFETRVFQNKHYLYPFSQRELDRNKLLTQNYGW
# Columns and labels:
# Assay in all cases: glycan array binding signal (z-score within array); higher = stronger binding
# Details in all cases: glycan notation: IUPAC condensed, linker removed
# [1] = biological target: GlcNAc(a1-6)Gal(b1-4)GlcNAc
# In short: (§1)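 Columns mapping to the same glycan were averaged after glycan names were converted to IUPAC-condensed notation. The data come from 3228 arrays in the Consortium for Functional Glycomics database, limited to those with an available protein sequence. Binding is reported as a within-array Z-score averaged across arrays of one protein sequence and across linkers.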
# [2] = biological target: GlcNAc(b1-2)Gal(b1-3)GalNAc
# In short: as §1
# [3] = biological target: GlcNAc(b1-2)Man(a1-3)[GlcNAc(b1-2)Man(a1-6)]Man(b1-4)GlcNAc(b1-4)GlcNAc
# In short: as §1
# [4] = biological target: GlcNAc(b1-2)Man(a1-3)[GlcNAc(b1-2)Man(a1-6)]Man(b1-4)GlcNAc(b1-4)[Fuc(a1-6)]GlcNAc
# In short: as §1
# [5] = biological target: GlcNAc(b1-2)Man(a1-3)[GlcNAc(b1-4)][GlcNAc(b1-2)Man(a1-6)]Man(b1-4)GlcNAc(b1-4)GlcNAc
# In short: as §1
# [6] = biological target: GlcNAc(b1-2)Man(a1-3)[GlcNAc(b1-4)][GlcNAc(b1-2)Man(a1-6)]Man(b1-4)GlcNAc(b1-4)[Fuc(a1-6)]GlcNAc
# In short: as §1
# [7] = biological target: GlcNAc(b1-2)[GlcNAc(b1-4)]Man(a1-3)[GlcNAc(b1-2)Man(a1-6)]Man(b1-4)GlcNAc(b1-4)GlcNAc
# In short: as §1
# [8] = biological target: GlcNAc(b1-2)[GlcNAc(b1-4)]Man(a1-3)[GlcNAc(b1-4)][GlcNAc(b1-2)Man(a1-6)]Man(b1-4)GlcNAc(b1-4)GlcNAc
# In short: as §1
# [9] = biological target: GlcNAc(b1-2)[GlcNAc(b1-4)]Man(a1-3)[GlcNAc(b1-4)][GlcNAc(b1-2)[GlcNAc(b1-6)]Man(a1-6)]Man(b1-4)GlcNAc(b1-4)GlcNAc
# In short: as §1
# [10] = biological target: GlcNAc(b1-2)[GlcNAc(b1-4)]Man(a1-3)[GlcNAc(b1-4)][GlcNAc(b1-2)[GlcNAc(b1-6)]Man(a1-6)]Man(b1-4)GlcNAc(b1-4)[Fuc(a1-6)]GlcNAc
# In short: as §1
# [11] = biological target: GlcNAc(b1-2)[GlcNAc(b1-6)]Man(a1-6)[GlcNAc(b1-2)Man(a1-3)]Man(b1-4)GlcNAc(b1-4)GlcNAc
# In short: as §1
# [12] = biological target: GlcNAc(b1-2)[GlcNAc(b1-6)]Man(a1-6)[GlcNAc(b1-2)Man(a1-3)]Man(b1-4)GlcNAc(b1-4)[Fuc(a1-6)]GlcNAc
# In short: as §1
# [13] = biological target: GlcNAc(b1-2)[GlcNAc(b1-6)]Man(a1-6)[GlcNAc(b1-4)][GlcNAc(b1-2)Man(a1-3)]Man(b1-4)GlcNAc(b1-4)GlcNAc
# In short: as §1
# GlcNAc(b1-3)Fuc = biological target: GlcNAc(b1-3)Fuc
# In short: as §1
# GlcNAc(b1-3)Gal = biological target: GlcNAc(b1-3)Gal
# In short: as §1
# [14] = biological target: GlcNAc(b1-3)Gal(b1-3)GalNAc
# In short: as §1
# GlcNAc(b1-3)Gal(b1-4)Glc = biological target: GlcNAc(b1-3)Gal(b1-4)Glc
# In short: as §1
# [15] = biological target: GlcNAc(b1-3)Gal(b1-4)GlcNAc
# In short: as §1
# [16] = biological target: GlcNAc(b1-3)Gal(b1-4)GlcNAc(b1-2)Man(a1-3)[GlcNAc(b1-3)Gal(b1-4)GlcNAc(b1-2)Man(a1-6)]Man(b1-4)GlcNAc(b1-4)GlcNAc
# In short: as §1
# [17] = biological target: GlcNAc(b1-3)Gal(b1-4)GlcNAc(b1-2)Man(a1-3)[GlcNAc(b1-3)Gal(b1-4)GlcNAc(b1-2)Man(a1-6)]Man(b1-4)GlcNAc(b1-4)[Fuc(a1-6)]GlcNAc
# In short: as §1
# [18] = biological target: GlcNAc(b1-3)Gal(b1-4)GlcNAc(b1-2)[GlcNAc(b1-3)Gal(b1-4)GlcNAc(b1-6)]Man(a1-6)[GlcNAc(b1-3)Gal(b1-4)GlcNAc(b1-2)Man(a1-3)]Man(b1-4)GlcNAc(b1-4)GlcNAc
# In short: as §1
# [19] = biological target: GlcNAc(b1-3)Gal(b1-4)GlcNAc(b1-3)Gal(b1-4)GlcNAc
# In short: as §1
# [20] = biological target: GlcNAc(b1-3)Gal(b1-4)GlcNAc(b1-3)Gal(b1-4)GlcNAc(b1-2)Man(a1-3)[GlcNAc(b1-3)Gal(b1-4)GlcNAc(b1-3)Gal(b1-4)GlcNAc(b1-2)Man(a1-6)]Man(b1-4)GlcNAc(b1-4)GlcNAc
# In short: as §1
# [21] = biological target: GlcNAc(b1-3)Gal(b1-4)GlcNAc(b1-3)Gal(b1-4)GlcNAc(b1-2)Man(a1-3)[GlcNAc(b1-3)Gal(b1-4)GlcNAc(b1-3)Gal(b1-4)GlcNAc(b1-2)Man(a1-6)]Man(b1-4)GlcNAc(b1-4)[Fuc(a1-6)]GlcNAc
# In short: as §1
# [22] = biological target: GlcNAc(b1-3)Gal(b1-4)GlcNAc(b1-3)Gal(b1-4)GlcNAc(b1-2)[GlcNAc(b1-3)Gal(b1-4)GlcNAc(b1-3)Gal(b1-4)GlcNAc(b1-6)]Man(a1-6)[GlcNAc(b1-3)Gal(b1-4)GlcNAc(b1-3)Gal(b1-4)GlcNAc(b1-2)Man(a1-3)]Man(b1-4)GlcNAc(b1-4)[Fuc(a1-6)]GlcNAc
# In short: as §1
# [23] = biological target: GlcNAc(b1-3)Gal(b1-4)GlcNAc(b1-3)Gal(b1-4)GlcNAc(b1-3)Gal(b1-4)GlcNAc(b1-2)Man(a1-3)[GlcNAc(b1-3)Gal(b1-4)GlcNAc(b1-3)Gal(b1-4)GlcNAc(b1-3)Gal(b1-4)GlcNAc(b1-2)Man(a1-6)]Man(b1-4)GlcNAc(b1-4)GlcNAc
# In short: as §1
# [24] = biological target: GlcNAc(b1-3)Gal(b1-4)GlcNAc(b1-3)Gal(b1-4)GlcNAc(b1-3)Gal(b1-4)GlcNAc(b1-2)Man(a1-3)[GlcNAc(b1-3)Gal(b1-4)GlcNAc(b1-3)Gal(b1-4)GlcNAc(b1-3)Gal(b1-4)GlcNAc(b1-2)Man(a1-6)]Man(b1-4)GlcNAc(b1-4)[Fuc(a1-6)]GlcNAc
# In short: as §1
# [25] = biological target: GlcNAc(b1-3)Gal(b1-4)GlcNAc(b1-3)Gal(b1-4)GlcNAc(b1-3)Gal(b1-4)GlcNAc(b1-2)[GlcNAc(b1-3)Gal(b1-4)GlcNAc(b1-3)Gal(b1-4)GlcNAc(b1-3)Gal(b1-4)GlcNAc(b1-6)]Man(a1-6)[GlcNAc(b1-3)Gal(b1-4)GlcNAc(b1-3)Gal(b1-4)GlcNAc(b1-3)Gal(b1-4)GlcNAc(b1-2)Man(a1-3)]Man(b1-4)GlcNAc(b1-4)[Fuc(a1-6)]GlcNAc
# In short: as §1
# [26] = biological target: GlcNAc(b1-3)Gal(b1-4)GlcNAc(b1-3)Gal(b1-4)GlcNAc(b1-3)Gal(b1-4)GlcNAc(b1-3)Gal(b1-4)GlcNAc(b1-2)Man(a1-3)[GlcNAc(b1-3)Gal(b1-4)GlcNAc(b1-3)Gal(b1-4)GlcNAc(b1-3)Gal(b1-4)GlcNAc(b1-3)Gal(b1-4)GlcNAc(b1-2)Man(a1-6)]Man(b1-4)GlcNAc(b1-4)GlcNAc
# In short: as §1
# [27] = biological target: GlcNAc(b1-3)Gal(b1-4)GlcNAc(b1-3)Gal(b1-4)GlcNAc(b1-3)Gal(b1-4)GlcNAc(b1-3)Gal(b1-4)GlcNAc(b1-2)Man(a1-3)[GlcNAc(b1-3)Gal(b1-4)GlcNAc(b1-3)Gal(b1-4)GlcNAc(b1-3)Gal(b1-4)GlcNAc(b1-3)Gal(b1-4)GlcNAc(b1-2)Man(a1-6)]Man(b1-4)GlcNAc(b1-4)[Fuc(a1-6)]GlcNAc
# In short: as §1
binder,measurement,setting,value
B1,glycan array binding signal (z-score),[1],-0.592
same,glycan array binding signal (z-score),[2],-0.556
same,glycan array binding signal (z-score),[3],0.28
same,glycan array binding signal (z-score),[4],0.979
same,glycan array binding signal (z-score),[5],-0.647
same,glycan array binding signal (z-score),[6],-0.83
same,glycan array binding signal (z-score),[7],-1.03
same,glycan array binding signal (z-score),[8],-0.749
same,glycan array binding signal (z-score),[9],-0.531
same,glycan array binding signal (z-score),[10],-0.175
same,glycan array binding signal (z-score),[11],-0.663
same,glycan array binding signal (z-score),[12],1.94
same,glycan array binding signal (z-score),[13],-0.683
same,glycan array binding signal (z-score),GlcNAc(b1-3)Fuc,-0.327
same,glycan array binding signal (z-score),GlcNAc(b1-3)Gal,-1.03
same,glycan array binding signal (z-score),[14],-0.264
same,glycan array binding signal (z-score),GlcNAc(b1-3)Gal(b1-4)Glc,-0.881
same,glycan array binding signal (z-score),[15],-1.04
same,glycan array binding signal (z-score),[16],1.97
same,glycan array binding signal (z-score),[17],0.811
same,glycan array binding signal (z-score),[18],3.38
same,glycan array binding signal (z-score),[19],-0.947
same,glycan array binding signal (z-score),[20],0.694
same,glycan array binding signal (z-score),[21],1.02
same,glycan array binding signal (z-score),[22],0.491
same,glycan array binding signal (z-score),[23],-0.612
same,glycan array binding signal (z-score),[24],0.775
same,glycan array binding signal (z-score),[25],0.232
same,glycan array binding signal (z-score),[26],0.023
same,glycan array binding signal (z-score),[27],0.877

# A different layout for some results above.
binder	measurement	setting	value
B1	glycan array binding signal (z-score)	GlcNAc(b1-3)Gal(b1-4)Glc	-0.881
same	glycan array binding signal (z-score)	[15]	-1.04
same	glycan array binding signal (z-score)	[16]	1.97
same	glycan array binding signal (z-score)	[17]	0.811
same	glycan array binding signal (z-score)	[18]	3.38
